Among the data in article PMC9396447 are binding values, retold here.

Results are given in words; binding and its absence hold for the method and conditions named. In cells and extracts the contact can be indirect. Some entries that bind do so weakly or less than the wild type.

The target of this assay is T1, frataxin (endogenous, mouse cortex / cultured cortical neurons) (mouse (endogenous in mouse cortex)) (UniProt O35943).
T1 sequence: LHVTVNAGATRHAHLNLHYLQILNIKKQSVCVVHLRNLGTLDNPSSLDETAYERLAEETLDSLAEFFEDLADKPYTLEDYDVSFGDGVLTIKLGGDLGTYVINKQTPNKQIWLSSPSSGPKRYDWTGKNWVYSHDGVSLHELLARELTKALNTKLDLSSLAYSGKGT
As to the kind of experiment: co-IP; mouse cortical (brain) homogenates; anti-frataxin antibody (Abcam) overnight at 4°C, protein G beads 2 h at 4°C, four washes with RIPA buffer; blot; control IgG.

B1: Mitochondrial protein ISCU2 (endogenous, mouse cortex) (protein, UniProt Q9D7P6 36-168)
chain: YHKKVVDHYENPRNVGSLDKTSKNVGTGLVGAPACGDVMKLQIQVDEKGKIVDARFKTFGCGSAIASSSLATEWVKGKTVEEALTIKNTDIAKELCLPPVKLHCSMLAEDAIKAALADYKLKQESKKEEPEKQ
Regarding B1, the binding entry is recorded as “binds”.
